Source: PubChem BioAssay AID1053133 (Broad Institute, 2014).

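Vaccinia-infected cells with a two-color viral stage reporter; Venus fluorescence read on a plate reader; the cell line is not named here; timing not stated here.
The test concentration is not given here.
Percent change in Venus reporter signal; lower (more negative) values mean stronger inhibition of that viral stage.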

Values are in %.
How 0% and 100% were set is not given here.
Common to all entries: measured here: Venus reporter, other viral stage.
This is a side read-out of the assay, for part of the compounds, not drawn at random.

| SMILES | activity change (Venus) (%) |
|---|---|
| `COc1cccc(NC(=O)N2CC(=O)N3[C@H](CO)[C@@H](c4ccc(C5=CCCC5)cc4)[C@@H]3C2)c1` | -41.72 |
| `N#Cc1cccc(-c2ccc3c(c2)[C@@H]2[C@@H](CCN2S(=O)(=O)c2cccc(F)c2)[C@H](CO)N3)c1` | -42.63 |
| `C[C@@H]1CCCCO[C@H](CN(C)Cc2ccc(Cl)c(Cl)c2)[C@@H](C)CN([C@@H](C)CO)C(=O)c2cc(N(C)C)ccc2O1` | -61.39 |
| `CS(=O)(=O)N1[C@H](CO)[C@@H](c2ccc(C#Cc3cccc(F)c3)cc2)[C@@H]1C#N` | -27.07 |
| `O=C(C[C@H]1CC[C@H]2[C@@H](COC[C@H](O)CN2S(=O)(=O)c2ccc(F)cc2)O1)NCc1ccc(Cl)c(Cl)c1` | -28.48 |
| `C[C@H]1CN([C@@H](C)CO)C(=O)c2cccc(NC(=O)Nc3cccc4ccccc34)c2O[C@H]1CN(C)Cc1ccc(Cl)c(Cl)c1` | -27.24 |
| `COc1ccc(S(=O)(=O)N(C)C[C@@H]2OCCCC[C@@H](C)Oc3ccc(NS(=O)(=O)c4ccccc4)cc3C(=O)N([C@@H](C)CO)C[C@H]2C)cc1` | -38.71 |
| `CC(C)CC#Cc1ccc2c(c1)O[C@H](CN(C)C(=O)Cc1cccnc1)[C@H](C)CN([C@H](C)CO)S2(=O)=O` | -56.32 |
| `C[C@@H]1CN([C@H](C)CO)C(=O)c2cc(NC(=O)Nc3ccc(F)cc3)ccc2O[C@@H]1CN(C)Cc1ccc(-c2ccccc2)cc1` | -30.53 |
| `COc1ccc(C#Cc2ccc([C@H]3[C@@H](CO)N4CCCCN(C(=O)Nc5ccccc5F)C[C@H]34)cc2)cc1` | -53.67 |
| `COc1cccc(-c2ccc3c(c2)[C@@H]2[C@@H](CCN2C(=O)c2ccc(F)cc2)[C@H](CO)N3)c1` | -26.01 |
| `COc1ccc(S(=O)(=O)N2CCCCN3[C@H](CO)[C@H](c4ccc(C5=CCCCC5)cc4)[C@H]3C2)cc1` | -39.8 |
| `C[C@@H]1CN([C@@H](C)CO)C(=O)c2cc(NS(=O)(=O)c3ccc(Cl)cc3)ccc2O[C@@H]1CN(C)S(=O)(=O)c1ccc(F)cc1` | -28.22 |
| `COc1ccc(NC(=O)N(C)C[C@@H]2OCc3ccccc3-c3c(n(C)c4ccccc34)C(=O)N([C@H](C)CO)C[C@@H]2C)c(OC)c1` | -27.83 |
| `COc1ccccc1NC(=O)N1CCCCN2[C@H](C1)[C@@H](c1ccc(C#CC3CCCC3)cc1)[C@@H]2CO` | -51.6 |
| `C[C@H]1CCCCO[C@@H](CN(C)C(=O)NC2CCCCC2)[C@@H](C)CN([C@@H](C)CO)C(=O)c2cc(NS(=O)(=O)c3ccc(F)cc3)ccc2O1` | -60.51 |
| `COc1ccc(S(=O)(=O)Nc2ccc3c(c2)C(=O)N([C@@H](C)CO)C[C@@H](C)[C@@H](CN(C)Cc2ccc(Cl)c(Cl)c2)O3)cc1` | -60.04 |
| `C[C@H]1CN([C@@H](C)CO)S(=O)(=O)c2ccc(C#Cc3ccccc3)cc2O[C@H]1CN(C)C(=O)Cc1ccccn1` | -29.29 |
| `C[C@@H]1CN([C@H](C)CO)S(=O)(=O)c2ccc(C#CC3CC3)cc2O[C@H]1CN(C)Cc1cccnc1` | -36.86 |
| `C[C@@H]1CN([C@@H](C)CO)C(=O)c2cc(NS(=O)(=O)c3ccccc3)ccc2O[C@@H]1CN(C)Cc1ccc(-c2ccccc2)cc1` | -52.9 |
| `C[C@H](CO)N1C[C@H](C)[C@@H](CN(C)Cc2ccc3c(c2)OCCN3C)OCc2ccccc2-c2c(n(C)c3ccccc23)C1=O` | -44.2 |
| `COc1ccc(C#Cc2ccc([C@H]3[C@H]4CN(C(=O)c5ccccc5)CC(=O)N4[C@H]3CO)cc2)cc1` | -57.13 |
| `N#Cc1ccc(-c2ccc3c(c2)[C@H]2[C@H](CCN2C(=O)C2CCC2)[C@@H](CO)N3)cc1` | -30.77 |
| `C[C@H]1CN([C@@H](C)CO)C(=O)Cc2cc(NC(=O)Cc3ccccc3)ccc2O[C@H]1CN(C)Cc1ccc(Cl)c(Cl)c1` | -58.33 |
| `CC(C)N(C[C@H]1N[C@H](CO)[C@@H]1c1ccc(C2=CCCCC2)cc1)C(=O)CN(C)C` | -23.35 |
| `Cc1cccc(-c2ccc([C@H]3[C@H]4CN(S(=O)(=O)c5cccc(C)c5)CCCCN4[C@H]3CO)cc2)c1` | -47.75 |
| `C[C@@H](O)C#Cc1ccc([C@H]2[C@@H](CO)N3CCCCN(S(=O)(=O)Cc4ccccc4)C[C@H]23)cc1` | -46.52 |
| `Cc1ccccc1-c1ccc([C@@H]2[C@@H](CO)N3CCCCN(C(=O)Nc4cccc(F)c4)C[C@H]23)cc1` | -75.61 |
| `CN(C)C(=O)c1cccc(-c2ccccc2[C@@H]2[C@@H](C#N)N(C(=O)C3CC3)[C@H]2CO)c1` | -85.61 |
| `OC[C@H]1[C@@H](c2ccc(-c3cccc(F)c3)cc2)[C@H]2CN(CCC(F)(F)F)CCCCN21` | -60.83 |
| `C[C@@H]1CN([C@@H](C)CO)C(=O)c2cccc(NC(=O)CCCCCC(=O)Nc3ccccc3N)c2O[C@H]1CN(C)Cc1ccc(Cl)c(Cl)c1` | -47.71 |

4 of the entries, repeated:

SMILES,activity change (Venus) (%)
C[C@@H]1CN([C@H](C)CO)S(=O)(=O)c2ccc(C#CC3CC3)cc2O[C@H]1CN(C)Cc1cccnc1,-36.86
C[C@H]1CN([C@@H](C)CO)C(=O)c2cccc(NC(=O)Nc3cccc4ccccc34)c2O[C@H]1CN(C)Cc1ccc(Cl)c(Cl)c1,-27.24
COc1ccc(NC(=O)N(C)C[C@@H]2OCc3ccccc3-c3c(n(C)c4ccccc34)C(=O)N([C@H](C)CO)C[C@@H]2C)c(OC)c1,-27.83
COc1ccc(C#Cc2ccc([C@H]3[C@@H](CO)N4CCCCN(C(=O)Nc5ccccc5F)C[C@H]34)cc2)cc1,-53.67